In patent publication US10690635 (dated 2020):

Test: general procedure: Fmoc solid-phase peptide synthesis
Settings: for crude HPLC purity: whole synthesis

## HAEGTFTSDVSSYLEGQAAKEFIAWLVRGRG
Purification step, 220 nm
  final HPLC purity: 99.35%
Purification step, RP-UHPLC
  final HPLC purity: 98.8%
Purification step, analytical RP-UHPLC, relative peak area, UV detection at 220 nm
  final purity (method not given): 99.2%
Purification step, analytical RP-UHPLC, relative peak area, UV detection at 220 nm, run 1
  final HPLC purity: 99.38%
Purification step, analytical RP-UHPLC, relative peak area, UV detection at 220 nm, run 2
  final HPLC purity: 99.36%
Purification step, analytical RP-UHPLC, relative peak area, UV detection at 220 nm, run 3
  final HPLC purity: 99.3%
Purification step, overall net peptide yield of desalting
  step yield: 91%
Purification step, overall yield after both purification steps
  step yield: 35%
Analytical RP-UHPLC, relative peak area, UV detection at 220 nm, run 1
  crude HPLC purity: >=60%
Analytical RP-UHPLC, relative peak area, UV detection at 220 nm, run 2
  crude HPLC purity: >60%

End groups of sequences in plain letters are not given here.
